Measurements reported in PubChem BioAssay AID652054 (National Center for Advancing Translational Sciences (NCATS), 2013).
The whole screen tested about 360,000 compounds, of which about 9,100 (2.5%) were called active. The shares of active, inactive and inconclusive entries below differ from those in the screen. Cut-off read from the data, not from the text of the source: active = max response below about -50%; inconclusive = no clear call, values can overlap the other calls; inactive = above that.

The chains behind the UniProt entries cited, without tags or fusion partners.
UniProt P35462, whole entry, looked up: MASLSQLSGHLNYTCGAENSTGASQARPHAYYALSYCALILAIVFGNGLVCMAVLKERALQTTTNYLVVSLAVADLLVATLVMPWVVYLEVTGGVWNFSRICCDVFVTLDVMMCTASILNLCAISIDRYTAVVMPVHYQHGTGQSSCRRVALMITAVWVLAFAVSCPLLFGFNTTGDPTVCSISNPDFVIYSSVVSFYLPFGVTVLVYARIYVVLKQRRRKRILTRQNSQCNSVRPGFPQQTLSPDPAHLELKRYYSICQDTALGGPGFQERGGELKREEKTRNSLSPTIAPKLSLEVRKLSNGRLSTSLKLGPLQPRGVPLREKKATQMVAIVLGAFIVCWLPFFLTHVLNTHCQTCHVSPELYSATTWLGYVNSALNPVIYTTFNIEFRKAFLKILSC

The molecules below were run against D(3) dopamine receptor (Homo sapiens) (UniProt P35462) (assay: qHTS of D3 Dopamine Receptor Antagonist: qHTS). Details: D3R cells, DiscoveRx beta-arrestin luminescence, antagonist mode; active compounds read low.
In short: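 Cells plated overnight at 1500 cells/well, then exposed to library compounds with dopamine controls for 90 minutes at 37 degrees C. DiscoveRx reagent added for 30–60 minutes at room temperature; luminescence read, quantitative HTS format.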
% is set by controls: 0 for no effect and ±100 for the full control effect.

Max response, negative = inhibition, inconclusive:
CCOc1ccccc1OCC(=O)Nc1nnc(COC)s1 -30%
CCCN1CCN(CCCNC(=O)c2cc3c(s2)-c2ccccc2OC3)CC1 -45.9%
COc1cccc(CNS(=O)(=O)c2cc(-c3cc(C)no3)ccc2C(C)C)c1 -34.1%
Cn1c(CS(=O)Cc2c(Cl)cccc2Cl)nnc1SCc1c(Cl)cccc1Cl (stereo not given) -32.4%
CN(C)CCCN(C(=O)CCc1ccccc1)c1nc2ccc(Br)cc2s1 -34.1%
O=C(NCc1cccnc1)C1CC2c3ccccc3C1c1ccccc12 (stereo not given) -48.4%
Cc1csc(OCC(=O)Nc2ccc(C)c(C)c2)n1 -32%
COc1ccc(OC)c(NC(=O)CCCN2C(=S)NC(C)(C)CC2C)c1 (stereo not given) -35.8%
COc1ccc(OC)c(-c2c(C#N)c(N)nc3c2c(=O)nc2sccn23)c1 -38.3%
Cc1ccccc1NCc1ccc(O)c2ncccc12 -31.6%
O=S(=O)(Nc1ccc(Nc2ccccc2)cc1)c1ccc(F)cc1 -30.3%
c1csc(-c2noc(CN3CCN4CCCC4C3)n2)c1 (stereo not given) -40.2%
N#CC1=C(N)N(c2ccc(Br)cc2)C2=C(C(=O)CCC2)C1c1cccnc1 (stereo not given) -31.8%
CSCCC(C(=O)NC1=NCCS1)N1C(=O)c2ccccc2C1=O (stereo not given) -32.3%
COc1ccccc1NC(=O)Nc1nc(C(N)C2CCCCC2)cs1 (stereo not given) -35.2%
COC(=O)c1cccc(C23CC4(C2)[C@H](CN(Cc2cccnc2)[C@@H]4c2ccccc2)C3c2ccccc2)c1 (stereo not given in full) -44.4%
CC1CN(C2CCN(C(=O)COc3ccccc3)CC2)CC(C)O1 (stereo not given) -47.5%
COc1cc(/C=C(\C#N)c2nc3ccccc3s2)cc([N+](=O)[O-])c1O -45.4%
CC(C)C1(C)C(=O)N=C2c3ccccc3C(=O)N21 (stereo not given) -37.7%
O=C(NC1CCCCC1)c1ccc(-c2ccccc2[N+](=O)[O-])o1 -42.8%
O=C(N=Nc1c(O)[nH]c2ccccc12)Nc1ccccc1 -39.7%
N#Cc1c(NC(=O)CN2C(=O)c3ccccc3C2=O)oc(-c2ccccc2)c1-c1ccccc1 -33.7%
O=C(CN1CCc2ccccc2C1)N1CCN(S(=O)(=O)c2ccccc2)CC1 -30.8%
Cc1ccc(NC(=O)CN(C)C(=O)c2ccc(Cl)c(S(=O)(=O)NCc3ccco3)c2)cc1 -47.7%
Cc1cccc(C=CC(=O)c2ccccc2)c1 -41.4%
COc1ccc(CNC(=O)C2(C)Cc3c(-c4cccc(C(N)=O)c4)ccnc3O2)cc1OC (stereo not given) -34.5%
CCOC(=O)C1(C(=O)OCC)COC(=O)C1CN1Cc2cc3ccccc3nc2C1 (stereo not given) -39.5%
COc1ccc(-c2noc(CCC(=O)NCCCN3CCC(Cc4ccccc4)CC3)n2)cc1 -41.6%
Cc1csc(SC(C)C(=O)Nc2ccc(Cl)cn2)n1 (stereo not given) -31.9%

Pulled one by one from the list above (2):
Max response, negative = inhibition, inconclusive:
CCCN1CCN(CCCNC(=O)c2cc3c(s2)-c2ccccc2OC3)CC1 -45.9%
CSCCC(C(=O)NC1=NCCS1)N1C(=O)c2ccccc2C1=O (stereo not given) -32.3%

Molecules from the list above with an aryl thioether with sulfur outside any ring, in the order listed:
Max response, negative = inhibition, inconclusive:
Cn1c(CS(=O)Cc2c(Cl)cccc2Cl)nnc1SCc1c(Cl)cccc1Cl (stereo not given) -32.4%
Cc1csc(SC(C)C(=O)Nc2ccc(Cl)cn2)n1 (stereo not given) -31.9%

Next part:

Max response, negative = inhibition, inactive:
O=c1[nH]cc(S(=O)(=O)N2CCN(c3cccc(C(F)(F)F)c3)CC2)c(=O)[nH]1 5.8%
COC(=O)c1sccc1NC(=O)c1c(C)noc1C 18.2%
O=C(Cn1cnc2c(nnn2Cc2ccc(F)cc2)c1=O)N1CCN(c2ccccc2)CC1 1.4%
Cc1c(C(=O)OC(C)C(C)C[N+](C)(C)C)oc2ccccc12 (stereo not given) 18.3%
O=C(c1cccs1)N1CCC(c2nc(-c3ccc(S(=O)(=O)N4CCOCC4)cc3)no2)CC1 19.3%
CCNC(=O)C1CCCN1S(=O)(=O)c1ccc(C)cc1 (stereo not given) 8.45%
S=c1[nH]nc2ccc3ccccc3n12 -9.4%
Cc1ccc(C2=NN(C(=O)CN3C(=O)c4ccccc4S3(=O)=O)C(c3ccco3)C2)cc1 (stereo not given) -5.49%
Cc1ccccc1N1CC(C(=O)Nc2nnc(SCCN3CCOCC3)s2)CC1=O (stereo not given) 3.18%
COc1ccc(C)cc1NC(=O)Nc1ccc(C(=O)N2CCCC2)cc1 25.7%
COc1cc(/C=C2\SC(=Nc3ccc(O)cc3)NC2=O)cc(OC)c1O -22.7%
CCN(CC(=O)NCc1cccs1)C(=O)c1ccc(-c2cccc(C(F)(F)F)c2)o1 -12.5%
COc1ccc2oc(C(=O)NCC(c3ccco3)N(C)C)c(C)c2c1 (stereo not given) 7.43%
CNC(=O)CC1C(=O)N(c2ccc(Cl)cc2)C(=S)N1CCc1ccc(OC)c(OC)c1 (stereo not given) 16.4%

Max response, negative = inhibition, active:
CCOc1c(Cl)cc(/C=C/C(=O)N(CC)CC(=O)Nc2ccc(NC(C)=O)cc2)cc1OC -52.7%
COC(=O)c1ccc(CN2CCCC(C(=O)c3cc(F)ccc3OC)C2)cc1 (stereo not given) -95.5%
CCc1ccc2ncc(S(=O)(=O)c3ccc(C)c(C)c3)c(N3CCCC3)c2c1 -55.8%
COc1ncccc1C(=O)N1CCC(n2nccc2NC(=O)CC(C)C)CC1 -52.1%
CCCn1c(SCC(=O)Nc2cc(C)on2)nc2c1c(=O)n(C)c(=O)n2C -50.7%
CCOC(=O)C1(CCOc2ccccc2)CCN(Cc2cccc(F)c2)CC1 -52.6%
COc1ccc(OC)c(CN2CCN(Cc3cccc4ccccc34)CC2)c1 -54.5%
COc1ccc(C(=O)Nc2nc(N3C(=O)c4ccccc4C3=O)n(-c3ccccc3)n2)cc1 -91%
Cc1ccc(CN2C3CCCC2CC(NC(=O)c2ccc(C)cc2)C3)cc1 (stereo not given) -109%
Cc1[nH]c(C)c(S(=O)(=O)Nc2ccc(OC(F)(F)F)cc2)c1C(=O)N1CCCCC1 -90.6%
O=C1c2ccccc2C(=O)N1Nc1ccc([N+](=O)[O-])cc1[N+](=O)[O-] -75.3%
CCOC(=O)C1CCN(C(=O)CSc2cc(=O)n(CC)c3ccccc23)CC1 -78.9%
